Test results: patent US10047122B2 (The United States of America, as represented by the …, priority 2013, dated 2018)
Strings that start with PEPTIDE1 are HELM notation: dots part the residues, brackets hold end groups and non-standard residues.

Experiment: general procedure: Fmoc solid-phase peptide synthesis; NovaSyn TG Sieber resin; HBTU/HOBT/DIPEA
Settings: whole synthesis

Substance	final LC-MS purity (HPLC, scale 0.1 mmol)	final HPLC purity (HPLC-MS, scale of the general procedure 0.1 mmol)
PEPTIDE1{[ac].P.L.H.S.[Thr(PO3POM2)].[am]}$$$$V2.0	>99%	–
PEPTIDE1{[ac].P.L.H.S.[Pmab(POM)2].[am]}$$$$V2.0	–	>99%
